# Source: patent publication US12065471B2, “B*44 restricted peptides for use in immunotherapy against cancers and related methods” (Immatics Biotechnologies GmbH, priority 2018, dated 2024)
# Tested on: HLA molecules of primary tumor and normal tissue samples
# Experiment: Identification and quantitation of tumor associated peptides presented on the cell surface (HLA immunoprecipitation, label-free LC-MS)
# Parameters: species or system human
# Settings: HLA-B*44 positive normal (N=124) vs tumor samples (N=159), FIGS. 1A-1M
row,Substance,"over-presentation of peptide in cancer tissues (median MS signal intensities, detection frequency)"
1,AEALGAAKKL (listed as Homo sapiens) [SEQ ID NO: 4],over-presentation

# Same assay, conditions: cancer entities on which the peptide was found presented (HLA immunoprecipitation, LC-MS); abbreviations in table footnotes
row,Substance,Peptide Presentation on cancer entities
1,112 (AEIEADRSYQH; listed as Homo sapiens) [compound 112],"HNSCC, OSCAR"
2,437 (HEDPSGSLHL; listed as Homo sapiens) [compound 437],"BRCA, UBC"
3,185 (TEANVQALF; listed as Homo sapiens) [compound 185],"CLL, NHL"
4,435 (FETEQALRL; listed as Homo sapiens) [compound 435],"NSCLCadeno, NSCLCsquam, PACA, UBC"
5,407 (MEFQNTQSY; listed as Homo sapiens) [compound 407],"BRCA, CLL, GC, HNSCC, MEL, NHL, NSCLCadeno, NSCLCsquam, OSCAR"
6,442 (KESDAGKYY; listed as Homo sapiens) [compound 442],CLL
7,443 (EEYAGQITL; listed as Homo sapiens) [compound 443],CLL
8,93 (SEAGLTANQY; listed as Homo sapiens) [compound 93],NHL
9,454 (SESSSAFQF; listed as Homo sapiens) [compound 454],"MEL, NHL"
10,375 (HEATFGEKRF; listed as Homo sapiens) [compound 375],"CCC, GBC, HNSCC, NSCLCsquam, OC, OSCAR, PACA, PRCA, UEC"
11,187 (TEQALRLSV; listed as Homo sapiens) [compound 187],PACA
12,232 (YEIRAEAL; listed as Homo sapiens) [compound 232],UBC
13,445 (QEVGEITNL; listed as Homo sapiens) [compound 445],"CCC, NSCLCsquam, UBC"
14,279 (GEPVTQPGSLL; listed as Homo sapiens) [compound 279],CLL
15,322 (REESDWHYL; listed as Homo sapiens) [compound 322],BRCA
16,380 (EECGKAFRVF; listed as Homo sapiens) [compound 380],"CLL, CRC, NHL"
17,438 (AELDSKILAL; listed as Homo sapiens) [compound 438],"BRCA, NSCLCsquam, OC"
18,99 (SECVKSLSF; listed as Homo sapiens) [compound 99],BRCA
19,404 (AEREQVIKL; listed as Homo sapiens) [compound 404],AML
20,256 (RLLPGKVVW; listed as Homo sapiens) [compound 256],PACA
21,223 (SEVEGLAFV; listed as Homo sapiens) [compound 223],"NSCLCadeno, PACA"
22,423 (KEAINLLKNY; listed as Homo sapiens) [compound 423],"BRCA, CLL, HNSCC, NHL"
23,17 (SEIYQPRGF; listed as Homo sapiens) [compound 17],NHL
24,429 (RETEDYSKQAL; listed as Homo sapiens) [compound 429],"CCC, NSCLCsquam"
25,138 (KEAPNIVTL; listed as Homo sapiens) [compound 138],BRCA

row,Substance,Peptide Presentation on cancer entities
1,97 (ELVHMINW; listed as Homo sapiens) [compound 97],BRCA
2,142 (QELFLHPVL; listed as Homo sapiens) [compound 142],NHL
3,230 (AEALVDGKW; listed as Homo sapiens) [compound 230],UBC
4,92 (KEPSQSCIAQY; listed as Homo sapiens) [compound 92],OSCAR
5,21 (SEAKEIKSQL; listed as Homo sapiens) [compound 21],BRCA
6,66 (AEVTLNNTI; listed as Homo sapiens) [compound 66],NSCLCadeno
7,198 (REEEANVVL; listed as Homo sapiens) [compound 198],"CCC, HCC, NSCLCsquam, UBC"
8,292 (HELALRQTV; listed as Homo sapiens) [compound 292],OSCAR
9,389 (DEQRRQNVAY; listed as Homo sapiens) [compound 389],"CRC, MEL, OSCAR"
10,426 (AESLFREAL; listed as Homo sapiens) [compound 426],"HNSCC, NSCLCsquam"
11,4 (AEALGAAKKL; listed as Homo sapiens) [compound 4],UEC
12,61 (AEYSVHKI; listed as Homo sapiens) [compound 61],PACA
13,156 (DAIPPPTLTW; listed as Homo sapiens) [compound 156],UBC
14,59 (AEIEADRSYQ; listed as Homo sapiens) [compound 59],HNSCC
15,60 (EEAVRSVAF; listed as Homo sapiens) [compound 60],"CLL, NHL"
16,400 (TELGLFGVW; listed as Homo sapiens) [compound 400],"HNSCC, NSCLCadeno"
17,165 (EEIEAHIAL; listed as Homo sapiens) [compound 165],"AML, CCC"
18,81 (GEKATMQNL; listed as Homo sapiens) [compound 81],"NSCLCsquam, UBC"
19,303 (GEDAHLTQY; listed as Homo sapiens) [compound 303],"HNSCC, NSCLCsquam"
20,326 (RELLDFSSW; listed as Homo sapiens) [compound 326],"CRC, MEL, UBC, UEC"
21,113 (MEFKTLNKN; listed as Homo sapiens) [compound 113],MEL
22,351 (EEGRVYVY; listed as Homo sapiens) [compound 351],"GC, NSCLCsquam, OSCAR, PRCA"
23,159 (EEVQDGKVI; listed as Homo sapiens) [compound 159],"CCC, HNSCC, NSCLCadeno, OSCAR, PACA"
24,298 (KEVASNSEL; listed as Homo sapiens) [compound 298],NSCLCsquam
25,345 (AEYQAAILHL; listed as Homo sapiens) [compound 345],MEL

row,Substance,Peptide Presentation on cancer entities
1,329 (SEPQITVNF; listed as Homo sapiens) [compound 329],"BRCA, GBC"
2,318 (SESSSFLKV; listed as Homo sapiens) [compound 318],PACA
3,234 (TEEPQRLFY; listed as Homo sapiens) [compound 234],"BRCA, HCC, MEL, NSCLCadeno, OC, OSCAR, RCC"
4,100 (QGDVVDYSFY; listed as Homo sapiens) [compound 100],AML
5,80 (TEQSLYYRQW; listed as Homo sapiens) [compound 80],MEL
6,266 (EEEDRDGHTW; listed as Homo sapiens) [compound 266],"GBC, UBC"
7,84 (AETSYVKVLEY; listed as Homo sapiens) [compound 84],GBC
8,137 (EKGLISAF; listed as Homo sapiens) [compound 137],SCLC
9,75 (LETSCGSSTAY; listed as Homo sapiens) [compound 75],NSCLCadeno
10,383 (EEMERDLDMY; listed as Homo sapiens) [compound 383],"CLL, MEL, NHL, NSCLCsquam, UEC"
11,388 (VEIVTIPSL; listed as Homo sapiens) [compound 388],"CLL, UEC"
12,370 (EEVLLANALW; listed as Homo sapiens) [compound 370],"CLL, CRC, HCC, NHL, UBC"
13,204 (YERPTLVEL; listed as Homo sapiens) [compound 204],"AML, CLL"
14,368 (KEKVPGITI; listed as Homo sapiens) [compound 368],"AML, MEL, NSCLCadeno, NSCLCsquam, OSCAR, PACA"
15,94 (SLAELIAKDW; listed as Homo sapiens) [compound 94],"CCC, HCC, UBC, UEC"
16,268 (EDLAVHLY; listed as Homo sapiens) [compound 268],CLL
17,312 (KEWEREKAVSL; listed as Homo sapiens) [compound 312],UBC
18,199 (AELPENLKALF; listed as Homo sapiens) [compound 199],HNSCC
19,242 (CDAQIQYSY; listed as Homo sapiens) [compound 242],AML
20,360 (DEMENLLTY; listed as Homo sapiens) [compound 360],"BRCA, CLL, HCC, NHL, NSCLCsquam, OSCAR, PRCA, UEC"
21,27 (GETCVRITY; listed as Homo sapiens) [compound 27],MEL
22,418 (GEPRKLLTQDW; listed as Homo sapiens) [compound 418],"HNSCC, NSCLCadeno"
23,269 (SEDLAVHL; listed as Homo sapiens) [compound 269],CLL
24,324 (QELSSIRQF; listed as Homo sapiens) [compound 324],NHL
25,181 (HEVAQDDHL; listed as Homo sapiens) [compound 181],UBC
